Reference: PubChem BioAssay AID743448 (Peter MacCallum Cancer Centre, 2014)

Purpose: 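Find knock-downs giving vorinostat-specific cell death in several colon cancer lines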 (follow-up of hits)
Cell system: four human colon cancer cell lines: HCT116-VR (vorinostat-resistant HCT116 derivative), SW480, SW620 and LIM1215
Reagent: siRNA pool against human genes, 40 nM siRNA pool
Timing: drug added two days after transfection, read one day later
Challenge: vorinostat 2.5 µM on one half of each plate, etoposide 5 µM on the other half
Cell line and drug panel: LIM1215 cells with etoposide
Measurement: 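Caspase 3/7 activity by luminescence and live-cell viability by fluorescence, each given as a ratio to mock-transfected wells and as a robust z-score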
Reading the numbers: caspase ratio to mock: higher = more caspase activity than mock; viability ratio to mock: higher = more live cells than mock
Rule for the call: 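a row is a hit if caspase relative to mock is 1.6 or above or viability relative to mock is 0.75 or below; wells dying heavily without drug are not called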
Meaning of the calls: active = caspase or viability hit in this panel; inactive = no change, or unhealthy well
Shown is an unselected part of the 106 reagents, under one of the conditions tested. 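Calls are per line and drug panel including etoposide, not vorinostat-specific; gene picks needed hits in two or more extra lines with vorinostat versus etoposide.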 Not all columns of the deposit are shown.

ANKRD13C-DT (ANKRD13C divergent transcript): caspase ratio to mock = 2.78; viability ratio to mock = 0.82; Outcome = active
POLR2J (RNA polymerase II subunit J): caspase ratio to mock = 1.68; viability ratio to mock = 0.83; Outcome = active
RLN3 (relaxin 3): caspase ratio to mock = 1.81; viability ratio to mock = 1.03; Outcome = active
MED26 (mediator complex subunit 26): caspase ratio to mock = 2.99; viability ratio to mock = 1.02; Outcome = active
MTF2 (metal response element binding transcription factor 2): caspase ratio to mock = 2.5; viability ratio to mock = 0.96; Outcome = active
THOC5 (THO complex subunit 5): caspase ratio to mock = 2.58; viability ratio to mock = 0.8; Outcome = active
IQSEC1 (IQ motif and Sec7 domain ArfGEF 1): caspase ratio to mock = 3.11; viability ratio to mock = 0.9; Outcome = inactive
NUP205 (nucleoporin 205): caspase ratio to mock = 4.88; viability ratio to mock = 0.69; Outcome = inactive
HPCAL1 (hippocalcin like 1): caspase ratio to mock = 3.07; viability ratio to mock = 0.9; Outcome = active
VAX1 (ventral anterior homeobox 1): caspase ratio to mock = 1.91; viability ratio to mock = 0.92; Outcome = active
ANO9 (anoctamin 9): caspase ratio to mock = 2.13; viability ratio to mock = 1.12; Outcome = active
LRP3 (LDL receptor related protein 3): caspase ratio to mock = 1.65; viability ratio to mock = 0.7; Outcome = active
LAD1 (ladinin 1): caspase ratio to mock = 2.06; viability ratio to mock = 1.05; Outcome = active
ZNF441 (zinc finger protein 441): caspase ratio to mock = 2.38; viability ratio to mock = 1.06; Outcome = active
OR2W5: caspase ratio to mock = 1.54; viability ratio to mock = 1; Outcome = inactive
TBC1D20 (TBC1 domain family member 20): caspase ratio to mock = 2.1; viability ratio to mock = 1; Outcome = active
PNN (pinin, desmosome associated protein): caspase ratio to mock = 2.96; viability ratio to mock = 0.95; Outcome = active
UTP3 (UTP3 small subunit processome component): caspase ratio to mock = 1.38; viability ratio to mock = 0.88; Outcome = inactive
EIF4A1 (eukaryotic translation initiation factor 4A1): caspase ratio to mock = 1.18; viability ratio to mock = 0.84; Outcome = inactive
PSMD4 (proteasome 26S subunit ubiquitin receptor, non-ATPase 4): caspase ratio to mock = 2.93; viability ratio to mock = 0.95; Outcome = active
RWDD2A (RWD domain containing 2A): caspase ratio to mock = 1.5; viability ratio to mock = 1.05; Outcome = inactive
CSE1L (chromosome segregation 1 like): caspase ratio to mock = 4.39; viability ratio to mock = 0.85; Outcome = active
EIF3I (eukaryotic translation initiation factor 3 subunit I): caspase ratio to mock = 1.85; viability ratio to mock = 0.65; Outcome = active
RNF186 (ring finger protein 186): caspase ratio to mock = 1.15; viability ratio to mock = 1.1; Outcome = inactive
NPEPPS (aminopeptidase puromycin sensitive): caspase ratio to mock = 1.77; viability ratio to mock = 0.62; Outcome = active
GPER1 (G protein-coupled estrogen receptor 1): caspase ratio to mock = 3.3; viability ratio to mock = 0.91; Outcome = active
AQR (aquarius intron-binding spliceosomal factor): caspase ratio to mock = 11.7; viability ratio to mock = 0.56; Outcome = inactive
SCRT2 (scratch family transcriptional repressor 2): caspase ratio to mock = 2.69; viability ratio to mock = 0.82; Outcome = inactive
FANCA (FA complementation group A): caspase ratio to mock = 4.7; viability ratio to mock = 0.83; Outcome = inactive
EIF2S1 (eukaryotic translation initiation factor 2 subunit alpha): caspase ratio to mock = 2.18; viability ratio to mock = 0.55; Outcome = active
POLR2D (RNA polymerase II subunit D): caspase ratio to mock = 2.85; viability ratio to mock = 0.82; Outcome = inactive
PSMD13 (proteasome 26S subunit, non-ATPase 13): caspase ratio to mock = 1.27; viability ratio to mock = 0.94; Outcome = inactive
CCNK (cyclin K): caspase ratio to mock = 1.86; viability ratio to mock = 0.78; Outcome = active
DDX19B (DEAD-box helicase 19B): caspase ratio to mock = 7.05; viability ratio to mock = 0.88; Outcome = inactive
GLI1 (GLI family zinc finger 1): caspase ratio to mock = 1.27; viability ratio to mock = 1.04; Outcome = inactive
DDX18 (DEAD-box helicase 18): caspase ratio to mock = 1.42; viability ratio to mock = 1.01; Outcome = inactive

5 successive entries from above, for reference:
ANO9 (anoctamin 9): caspase ratio to mock = 2.13; viability ratio to mock = 1.12; Outcome = active
LRP3 (LDL receptor related protein 3): caspase ratio to mock = 1.65; viability ratio to mock = 0.7; Outcome = active
LAD1 (ladinin 1): caspase ratio to mock = 2.06; viability ratio to mock = 1.05; Outcome = active
ZNF441 (zinc finger protein 441): caspase ratio to mock = 2.38; viability ratio to mock = 1.06; Outcome = active
OR2W5: caspase ratio to mock = 1.54; viability ratio to mock = 1; Outcome = inactive
